# Counter-ions that a name gives are not always drawn. The list shows a part of the results. Repeats in this data set agree poorly, so a single value says little.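 Human embryonic kidney cells were transiently transfected with a plasmid bearing a Renilla luciferase gene under the HSV-TK promoter. This first-round screen tests roughly ten thousand compounds for ones that increase reporter output.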
# System: HEK 293FT
# Experiment: log relative Renilla luciferase luminescence (reporter expression vs reference, reference not stated) (log (base not stated)); higher = higher recombinant reporter expression
# Details: 10 µM; time after transfection 48 h
row,SMILES,log
1,O=C1C(O)=C([C@H]2CC[C@H](c3ccc(Cl)cc3)CC2)C(=O)c2ccccc21 [Atovaquone],0.0542
2,NC(=O)NC1NC(=O)NC1=O (stereo not given) [Allantoin],0.135
3,O=C1CCc2ccc(OCCCCN3CCN(c4cccc(Cl)c4Cl)CC3)cc2N1 [Aripiprazole],-0.247
4,CN(C)CCOC(c1ccc(Cl)cc1)c1ccccn1 (stereo not given) [Carbinoxamine maleate salt],-0.115
5,COC(=O)C1=C(C)NC(C)=C(C(=O)OCC(C)C)C1c1ccccc1[N+](=O)[O-] (stereo not given) [Nisoldipine],-0.597
6,COC(=O)C1=C(C)NC(C)=C(C(=O)OCCN(C)Cc2ccccc2)C1c1cccc([N+](=O)[O-])c1 (stereo not given) [Nicardipine hydrochloride],0.0943
7,CN1CCN(c2c(F)cc3c(=O)c(C(=O)O)cn4c3c2SCC4)CC1 [Rufloxacin],0.154
8,Cc1cnc(C(=O)NCCc2ccc(S(=O)(=O)NC(=O)NC3CCCCC3)cc2)cn1 [Glipizide],0.0683
9,COc1ccccc1N1CCN(CCCCNC(=O)c2ccc3ccccc3c2)CC1,0.0695
10,CCC1NC(=O)c2cc(S(N)(=O)=O)c(Cl)cc2N1 (stereo not given) [Quinethazone],-0.0455
11,"CC(O)(P(=O)(O)O)P(=O)(O)O [Etidronic acid, disodium salt]",-0.0186
12,"CCN(CC)CCOc1ccc(C(=C(Cl)c2ccccc2)c2ccccc2)cc1 [Clomiphene citrate (Z,E)]",0.156
13,CN(C)[C@@H]1C(O)=C(C(=O)NCNCCCC[C@H](N)C(=O)O)C(=O)[C@@]2(O)C(O)=C3C(=O)c4c(O)cccc4[C@@](C)(O)[C@H]3C[C@@H]12 [Lymecycline],-0.0785
14,CCCCNc1ccc(C(=O)OCCN(C)C)cc1 [Tetracaïne hydrochloride],-0.115
15,CN1CCOC(c2ccccc2)c2ccccc2C1 (stereo not given) [Nefopam hydrochloride],0.0876
16,CN1CCC(=C2c3ccccc3CCc3sccc32)CC1 [Pizotifen malate],0.0949
17,CCC(=O)OCC(=O)[C@@]1(OC(=O)CC)[C@@H](C)C[C@H]2[C@@H]3CCC4=CC(=O)C=C[C@]4(C)[C@@]3(Cl)[C@@H](O)C[C@@]21C [Beclomethasone dipropionate],-1.4
18,CCN(CC)Cc1cc(Nc2ccnc3cc(Cl)ccc23)ccc1O [Amodiaquin dihydrochloride dihydrate],0.135
19,COc1ccccc1N1CCN(CCCNc2cc(=O)n(C)c(=O)n2C)CC1 [Urapidil hydrochloride],0.137
20,Cn1c(=O)c2c(ncn2CCO)n(C)c1=O [Etofylline],0.0598
21,"CC(C)NCC(O)c1cc(O)cc(O)c1 (stereo not given) [Metaproterenol sulfate, orciprenaline sulfate]",-0.00598
22,O=C(O)CN(CCN(CC(=O)O)CC(=O)O)CCN(CC(=O)O)CC(=O)O [Pentetic acid],-0.404
23,C#CCN(C)CCCOc1ccc(Cl)cc1Cl [Clorgyline hydrochloride],0.0466
24,C[n+]1ccccc1/C=N/O [Pralidoxime chloride],-0.916
25,Cc1cccc(Nc2ccccc2C(=O)O)c1C [Mefenamic acid],0.175

# Single values from the list.
# Value for COC(=O)C1=C(C)NC(C)=C(C(=O)OCC(C)C)C1c1ccccc1[N+](=O)[O-] (stereo not given) [Nisoldipine] under log: -0.597
# Value for Cc1cnc(C(=O)NCCc2ccc(S(=O)(=O)NC(=O)NC3CCCCC3)cc2)cn1 [Glipizide] under log: 0.0683

# Next records follow:

row,SMILES,log
1,CCC(C)n1ncn(-c2ccc(N3CCN(c4ccc(OCC5COC(Cn6cncn6)(c6ccc(Cl)cc6Cl)O5)cc4)CC3)cc2)c1=O (stereo not given) [Itraconazole],-1.38
2,O=C(O)CCNC(=O)c1ccc(/N=N/c2ccc(O)c(C(=O)O)c2)cc1 [Balsalazide Sodium],0.00113
3,O=C1OC(CN2CCOCC2)CN1/N=C/c1ccc([N+](=O)[O-])o1 (stereo not given) [Furaltadone hydrochloride],-0.072
4,CNCCCN1c2ccccc2CCc2ccccc21 [Desipramine hydrochloride],0.0159
5,O=C1NCCN1CCN1CCC(c2cn(-c3ccc(F)cc3)c3ccc(Cl)cc23)CC1 [Sertindole],-0.098
6,O=C1CCC(N2C(=O)c3ccccc3C2=O)C(=O)N1 (stereo not given) [Thalidomide],0.03
7,CC(=O)OCC1=C(C(=O)O)N2C(=O)[C@@H](NC(=O)Cc3cccs3)[C@H]2SC1 [Cephalothin sodium salt],0.212
8,Clc1ccc(C(Cn2ccnc2)OCc2csc3c(Cl)cccc23)c(Cl)c1 (stereo not given) [Sertaconazole nitrate],-0.0898
9,CCN(CC)CCNC(=O)COc1ccc(OC)cc1 [Mefexamide hydrochloride],0.097
10,CC1(C)S[C@@H]2[C@H](NC(=O)Cc3ccccc3)C(=O)N2[C@H]1C(=O)O [Benzathine benzylpenicillin],0.0424
11,CC1(C)S[C@@H]2[C@H](NC(=O)Cc3ccccc3)C(=O)N2[C@H]1C(=O)O [Benzylpenicillin sodium],-0.0137
12,CCCCc1nc(Cl)c(CO)n1Cc1ccc(-c2ccccc2-c2nnn[nH]2)cc1 [Losartan],0.0638
13,NCC[C@H](O)C(=O)N[C@@H]1C[C@H](N)[C@@H](O[C@H]2O[C@H](CN)[C@@H](O)[C@H](O)[C@H]2O)[C@H](O)[C@H]1O[C@H]1O[C@H](CO)[C@@H](O)[C@H](N)[C@H]1O [Amikacin hydrate],0.109
14,Nc1nc(O)c2ncn(CCC(CO)CO)c2n1 [Penciclovir],0.0331
15,Fc1ccc([C@@H]2CCNC[C@H]2COc2ccc3c(c2)OCO3)cc1 [Paroxetine Hydrochloride],-0.0243
16,O=c1[nH]cnc2c1ncn2[C@H]1CC[C@@H](CO)O1 [Didanosine],0.102
17,NCCC[C@H](N)CC(=O)N[C@H]1CNC(=O)[C@H]([C@H]2C[C@H](O)NC(N)=N2)NC(=O)/C(=C/NC(N)=O)NC(=O)[C@H](CO)NC(=O)[C@H](CO)NC1=O [Viomycin sulfate],0.0079
18,NC(CO)C(=O)NNCc1ccc(O)c(O)c1O (stereo not given) [Benserazide hydrochloride],0.129
19,CN(C)CCCN1c2ccccc2CCc2ccccc21 [Imipramine hydrochloride],0.226
20,CN1CCC(OC(c2ccccc2)c2ccccc2)CC1 [Diphenylpyraline hydrochloride],0.134
21,Clc1ccc(Nc2nnc(Cc3ccncc3)c3ccccc23)cc1 [Vatalanib],-0.404
22,CC(=O)SCC(Cc1ccccc1)C(=O)NCC(=O)OCc1ccccc1 (stereo not given) [Racecadotril],-0.0642
23,C[C@H](CCC(=O)O)[C@H]1CC[C@H]2[C@@H]3CC[C@@H]4C[C@H](O)CC[C@]4(C)[C@H]3CC[C@]12C [Lithocholic acid],0.00816
24,COC(=O)C1=C(C)NC(C)=C(C(=O)OC(C)C)C1c1cccc2nonc12 (stereo not given) [Isradipine],-0.0407
25,"C[C@@]1(O)CCOC(=O)C1 [Mevalonic-D, L acid lactone]",0.0748

row,SMILES,log
1,COCC(=O)Nc1c(I)c(C(=O)NCC(O)CO)c(I)c(C(=O)N(C)CC(O)CO)c1I (stereo not given) [Iopromide],0.0756
2,O=C(O)CCCC[C@@H]1SC[C@@H]2NC(=O)N[C@@H]21 [Biotin],0.0384
3,CC1COc2c(N3CCN(C)CC3)c(F)cc3c(=O)c(C(=O)O)cn1c23 (stereo not given) [Ofloxacin],0.0361
4,CC(C)C(=O)Nc1ccc([N+](=O)[O-])c(C(F)(F)F)c1 [Flutamide],-0.0547
5,Cn1cnc([N+](=O)[O-])c1Sc1ncnc2[nH]cnc12 [Azathioprine],-0.23
6,OCCN1C[C@H](O)[C@@H](O)[C@H](O)[C@H]1CO [Miglitol],0.0638
7,"c1ccc(CNc2ncnc3nc[nH]c23)cc1 [Aminopurine, 6-benzyl]",-0.216
8,CN1Cc2c(N)cccc2C(c2ccccc2)C1 (stereo not given) [Nomifensine maleate],0.0626
9,CC(C)(O)c1ccccc1CC[C@@H](SCC1(CC(=O)O)CC1)c1cccc(/C=C/c2ccc3ccc(Cl)cc3n2)c1 [Montelukast],0.0444
10,COc1c(N2CCNC(C)C2)c(F)cc2c(=O)c(C(=O)O)cn(C3CC3)c12 (stereo not given) [Gatifloxacin],0.132
11,O=C(c1ccccc1)c1ccc2n1CCC2C(=O)O (stereo not given) [Ketorolac tromethamine],0.145
12,CCOC(=O)[C@@](C)(N)Cc1ccc(O)c(O)c1 [Methyldopate hydrochloride],0.0769
13,Nc1ccn([C@@H]2CS[C@H](CO)O2)c(=O)n1 [Lamivudine],-0.058
14,Cc1cc(N)c2ccccc2[n+]1CCCCCCCCCC[n+]1c(C)cc(N)c2ccccc21 [Dequalinium dichloride],-0.148
15,COc1ccccc1OCC(O)COC(N)=O (stereo not given) [Methocarbamol],0.0377
16,NC1CCN(c2nc3c(cc2F)c(=O)c(C(=O)O)cn3-c2ccc(F)cc2F)C1 (stereo not given) [Tosufloxacin hydrochloride],0.0404
17,COC(=O)Nc1nc2cc([S+]([O-])c3ccccc3)ccc2[nH]1 (stereo not given) [Oxfendazol],-0.356
18,CCCOc1ccc(C(=O)OCCN(CC)CC)cc1N [Proparacaine hydrochloride],-0.00375
19,CC(=O)OCC(=O)[C@@]1(OC(C)=O)[C@@H](C)C[C@H]2[C@@H]3C[C@H](F)C4=CC(=O)C=C[C@]4(C)[C@@]3(F)[C@@H](O)C[C@@]21C [Diflorasone Diacetate],-0.121
20,CC[C@@H](CO)NCCN[C@@H](CC)CO [Ethambutol dihydrochloride],0.0542
21,CC(CN(C)C)C(C)(O)Cc1ccc(Cl)cc1 (stereo not given) [Clobutinol hydrochloride],-0.0656
22,C[C@]1(Cn2ccnn2)[C@H](C(=O)O)N2C(=O)C[C@H]2S1(=O)=O [Tazobactam],-0.0219
23,C=CCOC(Cn1ccnc1)c1ccc(Cl)cc1Cl (stereo not given) [Enilconazole],-0.132
24,CC(CN(C)C)CN1c2ccccc2Sc2ccccc21 (stereo not given) [Trimeprazine tartrate],-0.044
25,CC1(C)[C@@H](OC(=O)CCC(=O)O)CC[C@]2(C)[C@H]3C(=O)C=C4[C@@H]5C[C@@](C)(C(=O)O)CC[C@]5(C)CC[C@@]4(C)[C@]3(C)CC[C@@H]12 [Carbenoxolone disodium salt],-0.109

# Part of the list above, reformatted.
row | SMILES | log
8 | Cc1cnc(C(=O)NCCc2ccc(S(=O)(=O)NC(=O)NC3CCCCC3)cc2)cn1 [Glipizide] | 0.0683
9 | CC(C)(O)c1ccccc1CC[C@@H](SCC1(CC(=O)O)CC1)c1cccc(/C=C/c2ccc3ccc(Cl)cc3n2)c1 [Montelukast] | 0.0444

# From the supplement of paper PMC7024190
